Paper PMC10185471
No constants are given. Whether binding was seen depends on the method and setting. In cells and extracts the contact can be indirect. These calls come from enrichment with a bait or labelling near it, and not all partners need be listed. Where a sequence is shown, tags or fusion partners need not be part of it.

Protein sequences, listed by entry. Tags and fused reporters are not part of them. Residues count along the entry.
UniProt Q9Z2G6, residues 22-790: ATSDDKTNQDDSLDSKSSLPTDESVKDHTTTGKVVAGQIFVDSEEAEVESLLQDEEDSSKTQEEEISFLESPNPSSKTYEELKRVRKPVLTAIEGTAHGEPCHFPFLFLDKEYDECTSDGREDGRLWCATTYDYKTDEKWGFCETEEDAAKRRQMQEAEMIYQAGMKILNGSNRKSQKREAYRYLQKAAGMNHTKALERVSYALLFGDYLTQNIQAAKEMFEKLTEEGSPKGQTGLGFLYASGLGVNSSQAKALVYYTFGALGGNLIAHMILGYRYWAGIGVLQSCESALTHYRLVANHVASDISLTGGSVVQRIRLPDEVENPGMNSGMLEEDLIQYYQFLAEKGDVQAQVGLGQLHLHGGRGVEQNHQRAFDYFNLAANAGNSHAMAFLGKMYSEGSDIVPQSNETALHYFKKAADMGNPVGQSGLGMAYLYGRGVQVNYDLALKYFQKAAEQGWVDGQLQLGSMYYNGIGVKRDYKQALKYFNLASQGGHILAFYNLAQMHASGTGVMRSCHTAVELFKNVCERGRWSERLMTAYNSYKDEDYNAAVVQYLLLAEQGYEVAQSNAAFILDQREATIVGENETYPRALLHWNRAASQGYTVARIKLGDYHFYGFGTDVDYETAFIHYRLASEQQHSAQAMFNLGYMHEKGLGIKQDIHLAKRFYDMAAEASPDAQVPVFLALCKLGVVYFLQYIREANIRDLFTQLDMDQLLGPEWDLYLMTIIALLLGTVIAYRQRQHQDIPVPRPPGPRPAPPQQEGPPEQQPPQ

Target: T1, STING-TurboID-V5 (UniProt Q3TBT3)
T1 sequence: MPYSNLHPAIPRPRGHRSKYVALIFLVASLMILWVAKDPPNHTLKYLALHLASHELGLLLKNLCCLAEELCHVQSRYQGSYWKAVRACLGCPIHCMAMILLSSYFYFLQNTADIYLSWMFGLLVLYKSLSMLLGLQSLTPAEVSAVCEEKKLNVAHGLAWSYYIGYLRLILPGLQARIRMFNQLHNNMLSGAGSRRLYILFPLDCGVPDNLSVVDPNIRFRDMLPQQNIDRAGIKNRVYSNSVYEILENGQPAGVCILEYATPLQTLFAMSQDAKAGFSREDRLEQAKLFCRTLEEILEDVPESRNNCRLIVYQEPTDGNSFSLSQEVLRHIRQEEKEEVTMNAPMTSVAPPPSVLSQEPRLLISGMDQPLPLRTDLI
Assay: proximity labelling; RAW 264.7 cells transfected with STING-TurboID-V5 (in the presence of H151), cGAMP for the indicated times, 50 µM biotin 10 min at 37 °C; streptavidin agarose, immunoblot

Substance: SEL1L (suppressor of lin-12-like), endogenous, mouse (from UniProt Q9Z2G6 22-790)
- binding: binds
